Results deposited as PubChem BioAssay AID602196 (INSERM, 2012)
The whole screen tested about 23,000 reagents; shown is a part drawn at random. In the full data, 455 (2%) got an active call. 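Active includes both protection and sensitisation; some change values fall well beyond the stated -50 to +50 range.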 Reagents against one gene are numbered here. Not all columns of the deposit are shown. The record does not give: the amount of reagent.

- Screen: 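Modifiers of cisplatin sensitivity in A549 cells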
- Cells: human A549 lung cancer cells
- Knock-down reagent: siRNA pair against human genes
- Time to read-out: 48 h transfection before cisplatin; time from cisplatin to read-out not stated
- Challenge: cisplatin at a dose killing half of control-siRNA cells; exact dose and duration not given
- Measured: 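Shift in cisplatin death relative to control siRNA, from -50 (all cells die) to +50 (no cells die); siRNAs harmful on their own scored 0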
- Reading the numbers: two-siRNA summed score (-2 to +2): higher = both siRNAs protect from cisplatin killing; -2 means both sensitise
- Active means: 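siRNAs harmful alone (LDH or WST-1) get 0; others get +1 for less and -1 for more cisplatin killing; genes are active when the two siRNAs give the same sign, summing to ±2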
- Meaning of the calls: active = both siRNAs shift cisplatin killing the same way; inactive = no consistent shift, or siRNA harmful alone

two-siRNA summed score (-2 to +2), by target gene and reagent
DHX9: #1 0 inactive
LOC400786: #1 0 inactive
BASP1-AS1: #1 0 inactive
TSBP1: #1 0 inactive
OR9A2: #1 0 inactive
LRRC27: #1 0 inactive
LINC01114: #1 0 inactive
LOC442569: #1 0 inactive
LOC440683 (retired record): #1 1 inactive
GSTT2: #1 1 inactive
ALG1L6P: #1 1 inactive
BCAT1: #1 -1 inactive
CHKB: #1 0 inactive
LOC440778: #1 2 active
BRPF1: #1 0 inactive
SH2D2A: #1 -1 inactive
SLCO1B1: #1 -1 inactive
EFNA1: #1 0 inactive
EFCAB14: #1 1 inactive
EPN3: #1 0 inactive
LOC442372: #1 1 inactive
ARFRP1: #1 0 inactive
ABCA2: #1 0 inactive
INTS4P1: #1 0 inactive
CASP4: #1 -1 inactive
CRLS1: #1 0 inactive
LOC151154: #1 0 inactive
LOC389212: #1 1 inactive
SLC35A1: #1 0 inactive
LRP5: #1 -1 inactive
CDKN1C: #1 1 inactive
PCSK6: #1 0 inactive
MIR570HG: #1 1 inactive
NT5C3B: #1 1 inactive
MIR22HG: #1 0 inactive
DNM1: #1 0 inactive
LOC442683: #1 0 inactive
STT3B: #1 2 active
ORC1: #1 1 inactive
LOC441174: #1 0 inactive
NPR3: #1 0 inactive; #2 1 inactive
SCRN2: #1 1 inactive
CMYA5: #1 1 inactive
AGA-DT: #1 0 inactive
LOC442432: #1 0 inactive
KREMEN1: #1 0 inactive
DNMT3A: #1 0 inactive
LOC391426: #1 2 active
CEACAM21: #1 0 inactive
FUCA2: #1 1 inactive
LOC129293: #1 0 inactive
SYDE1: #1 0 inactive
SYT11: #1 0 inactive
RPL9: #1 0 inactive
LOC401282: #1 0 inactive
OR2C1: #1 0 inactive
BGN: #1 1 inactive
CENPX: #1 2 active
PIF1: #1 0 inactive
FLJ37266: #1 -1 inactive
NDUFS6: #1 0 inactive
DCBLD2: #1 0 inactive
THAP9: #1 0 inactive
ATRNL1: #1 -1 inactive
SCN4B: #1 1 inactive
LOC219638: #1 1 inactive
CD8A: #1 -1 inactive
RBM28: #1 0 inactive
SP3: #1 0 inactive
GREM1: #1 0 inactive
BRME1: #1 0 inactive
SULT2A1: #1 1 inactive

Reagents above called active (4):
two-siRNA summed score (-2 to +2), by target gene and reagent
LOC440778: #1 2 active
STT3B: #1 2 active
LOC391426: #1 2 active
CENPX: #1 2 active
